Assay results as given in US4629683A, “Processing silver halide photographic material with blocked agent and hydroxylamine” (Fuji Photo Film Co., Ltd., priority 1983, dated 1986).

Assays:
[1] = Maximum density of color developed in coated film samples with antifoggant precursor, Processings A to D; settings: precursor 5 × 10^-3 molar ratio to silver halide
Procedure: (§1) On a cellulose triacetate film support having thereon a subbing layer was coated the layers described below in the order listed, to which emulsion layer an emulsified dispersion prepared by dissolving one of the antifoggant precursors set forth in Table 3 and Magenta Coupler (C-1) in a mixture of tricresyl phosphate and ethyl acetate and then dispersing the resulting solution into a gelatin aqueous solution was added, to prepare Samples 1 to 15. The coverage of each component is shown in parentheses in terms of g/m^2 or mol/m^2.
(§2) (1) Emulsion layer containing a silver iodobromide negative emulsion (grain size: 1.5μ, silver: 1.6×10^-2 mol/m^2), Magenta Coupler (C-1) (1.33×10^-3 mol/m^2), tricresyl phosphate (0.95 g/m^2) and gelatin (2.5 g/m^2).
(§3) (2) Protective layer containing the sodium salt of 2,4-dichloro-6-hydroxy-s-triazine (0.05 g/m^2) and gelatin (1.30 g/m^2).
(§4) These films were allowed to stand for 14 hours at a temperature of 40° C. and a relative humidity of 70% and thereafter subjected to sensitometric exposure using white light and, subsequently, to the color development processing (Processing A) described below. The densities of the processed samples were measured using green light to obtain data concerning photographic properties.
The processing solutions used in the abovedescribed steps respectively had the following compositions.
The same processings as Processing A were also used except that color developing solutions prepared by adding 12 g of hydroxylamine sulfate (VI)-(2), 1 g of bis(methoxyethyl)hydroxylamine (VI)-(5) and 6 g of methylhydroxylamine hydrochloride (VI)-(3), respectively, to a 1 liter portion of the color developing solution of Processing A were used. These processings are designated Processing B, Processing C and Processing D, respectively.
The maximum densities of colors developed in each of the above-described Processings A, B, C and D in Samples 1 to 15 are shown in Table 3 below.

[2] = Fog and relative sensitivity of coated film samples, Processings A and E; settings: for Fog: precursor 1 × 10^-5 to 5 × 10^-5 molar ratio to silver halide; for Relative Sensitivity: standard point fog + 0.2, sample No. 16 set at 100
Procedure: as §1, §2, §3, §4
Coated Samples 16 to 28, each of which contained an antifoggant or a precursor of the antifoggant, were prepared in the same manner as in Example 3. Each of these films was exposed in the same manner as in Example 3 and, subsequently, to color development processing (Processing E) wherein a color developing solution prepared by adding 4.0 g of hydroxylamine sulfate to a 1 liter portion of the color developing solution used in Processing A of Example 3 was used.
**Relative sensitivity: Standard point of the optical density to determin
the sensitivity was fog + 0.2,and the standard sensitivity of antifoggant
precursor absent sample (No. 16) was set at 100.

[3] = Processing A (hydroxylamine absent)
[4] = Processing B (12 g/l hydroxylamine sulfate (VI)-(2))
[5] = Processing C (1 g/l bis(methoxyethyl)hydroxylamine (VI)-(5))
[6] = Processing D (6 g/l methylhydroxylamine hydrochloride (VI)-(3))
[7] = Processing E (4.0 g/l hydroxylamine sulfate)

In the case of `CNC(=O)Nc1cccc(-n2nnnc2SCN2C(=O)OC(C)(C)C2=O)c1` [(II)-(9)], the “maximum density of color developed” value [1, 3] is reported as 1.40, the “maximum density of color developed” value [1, 4] is reported as 0.75 and the “maximum density of color developed” value [1, 5] is reported as 0.96. The “maximum density of color developed” value [1, 6] was 1.03.

For `O=C1CC(Sc2nnnn2-c2ccccc2)C(=O)N1c1ccccc1` (stereo not shown) [Compound B-2, reference compound], the “maximum density of color developed” value [1, 3] was 1.39, the “maximum density of color developed” value [1, 4] was 1.25 and the “maximum density of color developed” value [1, 5] was 1.08. The “maximum density of color developed” value [1, 6] was 1.27, the Fog [2, 3] was 0.14 and the “Relative Sensitivity” value ([2]; Processing A) was 98. For the same molecule, the Fog [2, 7] was 0.13 and the “Relative Sensitivity” value ([2]; Processing E) was 89.

For `O=C1CCCC(=O)N1CSc1nnnn1-c1ccccc1` [Compound (II)-(2), N-(1-phenyl-1-tetrazolylthiomethyl)glutarimide], the Fog [2, 3] was 0.14, the “Relative Sensitivity” value ([2]; Processing A) was 100 and the Fog [2, 7] was 0.10. The “Relative Sensitivity” value ([2]; Processing E) was 92.

With `CN(C(=O)Sc1nnnn1-c1ccccc1)c1cccc2c1COC2=O` [(V)-(1)] the “maximum density of color developed” value [1, 3] was 1.41, the “maximum density of color developed” value [1, 4] was 0.85 and the “maximum density of color developed” value [1, 5] was 0.93. The “maximum density of color developed” value [1, 6] was 1.03.

For `O=C1OC(Sc2nnnn2-c2ccccc2)c2ccccc21` (stereo not shown) [(III)-(1)], the Fog [2, 3] was 0.13, the “Relative Sensitivity” value ([2]; Processing A) was 98 and the Fog [2, 7] was 0.08. The “Relative Sensitivity” value ([2]; Processing E) was 89.

In the case of `NS(=O)(=O)c1cccc(-n2nnnc2SCN2C(=O)c3ccccc3C2=O)c1` [(I)-(4)], the Fog [2, 3] is reported as 0.14, the “Relative Sensitivity” value ([2]; Processing A) is reported as 99 and the Fog [2, 7] is reported as 0.08. For the same molecule, the “Relative Sensitivity” value ([2]; Processing E) was 91.

In the case of `Oc1ccc(CSc2nnnn2-c2ccccc2)cc1` [Compound B-3, reference compound], the “maximum density of color developed” value [1, 3] is reported as 0.88, the “maximum density of color developed” value [1, 4] is reported as 0.86 and the “maximum density of color developed” value [1, 5] is reported as 0.87. For the same molecule, the “maximum density of color developed” value [1, 6] was 0.88.

For `O=C1CCC(=O)N1CSc1nnnn1-c1ccccc1` [(II)-(1)], the “maximum density of color developed” value [1, 3] was 1.41, the “maximum density of color developed” value [1, 4] was 0.80 and the “maximum density of color developed” value [1, 5] was 0.97. For the same molecule, the “maximum density of color developed” value [1, 6] was 1.05.

With `CNC(=O)Nc1cccc(-n2nnnc2SCN2C(=O)c3ccccc3S2(=O)=O)c1` [(I)-(16)] the “maximum density of color developed” value [1, 3] was 1.35, the “maximum density of color developed” value [1, 4] was 0.83 and the “maximum density of color developed” value [1, 5] was 0.92. For the same molecule, the “maximum density of color developed” value [1, 6] was 1.06, the Fog [2, 3] was 0.14 and the “Relative Sensitivity” value ([2]; Processing A) was 100. The Fog [2, 7] was 0.08 and the “Relative Sensitivity” value ([2]; Processing E) was 89.

With `N#CCCSc1nnnn1-c1ccccc1` [Compound B-1, reference compound] the “maximum density of color developed” value [1, 3] was 1.38, the “maximum density of color developed” value [1, 4] was 1.22 and the “maximum density of color developed” value [1, 5] was 1.07. For the same molecule, the “maximum density of color developed” value [1, 6] was 1.22, the Fog [2, 3] was 0.14 and the “Relative Sensitivity” value ([2]; Processing A) was 100. For the same molecule, the Fog [2, 7] was 0.13 and the “Relative Sensitivity” value ([2]; Processing E) was 89.

For `Cc1ccc(S(=O)(=O)Nc2ccc3c(c2)C(=O)N(CSc2nnnn2-c2ccccc2)C3=O)cc1` [Compound (I)-(11), N-(1-phenyl-5-tetrazolylthiomethyl)-4-(p-toluenesulfonamido)phthalimide], the “maximum density of color developed” value [1, 3] was 1.40, the “maximum density of color developed” value [1, 4] was 0.84 and the “maximum density of color developed” value [1, 5] was 0.96. The “maximum density of color developed” value [1, 6] was 1.08.

For `CN1C(=O)c2cccc(N(C)C(=O)n3nnc4cc(Cl)c(Cl)cc43)c2C1=O` [(IV)-(1)], the “maximum density of color developed” value [1, 3] was 1.40, the “maximum density of color developed” value [1, 4] was 0.82 and the “maximum density of color developed” value [1, 5] was 0.91. For the same molecule, the “maximum density of color developed” value [1, 6] was 1.02, the Fog [2, 3] was 0.14 and the “Relative Sensitivity” value ([2]; Processing A) was 100. For the same molecule, the Fog [2, 7] was 0.08 and the “Relative Sensitivity” value ([2]; Processing E) was 90.

With `O=C1OC(Sc2nnnn2-c2ccccc2)c2ccc([N+](=O)[O-])cc21` (stereo not shown) [(III)-(3)] the “maximum density of color developed” value [1, 3] was 1.41, the “maximum density of color developed” value [1, 4] was 0.89 and the “maximum density of color developed” value [1, 5] was 0.89. For the same molecule, the “maximum density of color developed” value [1, 6] was 1.01.

For `O=C1c2ccccc2S(=O)(=O)N1CSc1nnnn1-c1ccccc1` [(I)-(15)], the “maximum density of color developed” value [1, 3] was 1.43, the “maximum density of color developed” value [1, 4] was 0.94 and the “maximum density of color developed” value [1, 5] was 0.93. The “maximum density of color developed” value [1, 6] was 1.11, the Fog [2, 3] was 0.14 and the “Relative Sensitivity” value ([2]; Processing A) was 100. The Fog [2, 7] was 0.09 and the “Relative Sensitivity” value ([2]; Processing E) was 92.
